Data as given in PubChem BioAssay AID493014 (National Center for Advancing Translational Sciences (NCATS), 2011).
Some of the results follow. The main result of the screen is listed elsewhere. These columns were measured beside it and carry no call. The list favours compounds with an active or inconclusive main result. Potencies come from curve fits of mixed quality, noted in brackets.

Test: qHTS Assay to Find Inhibitors of Chronic Active B-Cell Receptor Signaling
Conditions: ABC-DLBCL IkBa-CBG/CBR reporter, luminescence ratio (green luciferase fused to IkBa over red control in TMD8 lymphoma cells), 4 h
Outline: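 Cell line TMD8 (human ABC DLBCL), stably expressing tet-inducible CBG68-IkBa fusion and CBR; IMDM/0.5% FBS; cpd up to 46 uM; dox induction, 4 h, 37C/5% CO2; dual luminescence; green/red ratio; MG132 control.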

[1] = measured here: CBR red luminescence, cell number
[2] = measured here: IkBa-CBG green luminescence

| SMILES | AC50 [1] | AC50 [2] |
| --- | --- | --- |
| CCc1cccc(NC(=O)Nc2ccc3c(c2)OCO3)c1 | 35.5 µM [falling, single point] | – |
| CCOC(=O)c1c(-c2ccccc2)csc1NC(=O)CSc1nc(N)cc(N)n1 | 2.59 µM [rising, partial curve, poor fit] | – |
| Cc1onc(-c2c(Cl)cccc2Cl)c1C(=O)NC(=S)Nc1sc2c(c1C(N)=O)CCC(C)C2 (stereo not given) | 0.92 µM [falling, full curve] | – |
| CC(C)(C)NC(=O)CCCSc1nc2ccccc2s1 | 4.47 µM [rising, full curve] | – |
| CSc1nc(N2CCOCC2)nc2ccc(C)cc12 | 11.6 µM [rising, partial curve, poor fit] | – |
| Cc1ccc(-c2csc3ncnc(Sc4nnc(CN5CCCCCC5=O)o4)c23)cc1 | 7.94 µM [falling, partial curve] | – |
| O=c1[nH]cnc2c1nc(NCc1ccccc1)n2C1O[C@@H](CO)[C@H](O)[C@@H]1O (stereo not given in full) | 12.6 µM [rising, partial curve, poor fit] | – |
| COc1ccccc1-n1cnnc1SCC(=O)N1CCN(S(=O)(=O)c2ccccc2)CC1 | 0.447 µM [falling, full curve] | – |
| COc1ccc2[nH]c(=O)c(CNc3ccccc3C)cc2c1 | 35.5 µM [falling, single point] | – |
| CCOC(=O)c1cnc(SCCc2ccccc2)nc1N | 0.891 µM [rising, partial curve, poor fit] | – |
| COc1ccc(CNc2nc(NCc3ccc(OC)c(OC)c3)n(C(=O)c3cccs3)n2)cc1OC | 14.1 µM [falling, single point] | – |
| CSc1ccccc1NC(=S)Nc1cccc(C(F)(F)F)c1 | 29.1 µM [rising, single point] | – |
| COc1cccc(C(=O)Nc2nnc(C3CCCO3)s2)c1 (stereo not given) | 8.2 µM [falling, partial curve] | – |
| COc1cccc(/C=N/n2c(-c3cc(C)[nH]n3)n[nH]c2=S)c1O | 25.1 µM [falling, single point] | – |
| COc1cccc(-c2nc(-c3ccccn3)no2)c1 | 7.94 µM [falling, partial curve] | – |
| O=C(Nc1nnc(-c2cccs2)s1)c1cccc(F)c1 | 0.282 µM [falling, full curve] | – |
| COc1ccc(-c2cc(C(=O)NC(Cc3c[nH]c4ccccc34)C(=O)O)c(C)o2)cc1OC (stereo not given) | 23.1 µM [falling, partial curve] | – |
| CC(C)(C)C1CCC(OCC(O)CN2CCCC2)CC1 (stereo not given) | 7.94 µM [falling, partial curve] | – |
| COc1ccc(-c2nsc3c(N4CCCCC4C)ncnc23)cc1 (stereo not given) | 14.1 µM [rising, partial curve] | – |
| COc1cc2nc(C)sc2cc1SC | 1.12 µM [falling, full curve] | – |
| Cc1ccccc1C(=O)Nc1ccc(N2CCCCCC2)cc1 | 12.6 µM [falling, partial curve, poor fit] | – |
| O=C(CSc1ncccn1)Nc1ccc(N2CCOCC2)cc1 | 29.1 µM [falling, single point] | – |

Some of the entries so far, bar-delimited:
SMILES | AC50 [1] | AC50 [2]
CCOC(=O)c1cnc(SCCc2ccccc2)nc1N | 0.891 µM [rising, partial curve, poor fit] | –
COc1ccc(CNc2nc(NCc3ccc(OC)c(OC)c3)n(C(=O)c3cccs3)n2)cc1OC | 14.1 µM [falling, single point] | –
CC(C)(C)C1CCC(OCC(O)CN2CCCC2)CC1 (stereo not given) | 7.94 µM [falling, partial curve] | –

Continuation:

| SMILES | AC50 [1] | AC50 [2] |
| --- | --- | --- |
| CCOc1ccc(C(=O)Nc2cc(Cl)ccc2-n2cncn2)cc1OC | 2.59 µM [rising, full curve, poor fit] | – |
| O=C(Nc1ccc(NC(=O)C2CC2)cn1)c1ccccc1Cl | 8.2 µM [falling, partial curve] | – |
| Cc1cccc(N2CCN(CC(=O)NCc3ccccc3)CC2)c1C | 35.5 µM [falling, single point] | – |
| CC(=O)C1=C(O)C(=O)N(CCC(=O)O)C1c1cccc(F)c1 (stereo not given) | 25.9 µM [rising, partial curve] | – |
| Cc1nnc(-c2ccc(Oc3ccc(C)c(C)c3)c([N+](=O)[O-])c2)o1 | 23.1 µM [falling, single point] | – |
| CC(=O)N1c2ccccc2Oc2cc3ccccc3cc21 | 0.326 µM [rising, full curve] | – |
| C=CCNC(=S)N/N=C(\C)c1ccc(OC)cc1 | 23.1 µM [rising, single point] | 18.4 µM [falling, single point] |
| Cc1cc(NC(=O)C(C)SCC(=O)N(C)CC(=O)Nc2ccccc2C(F)(F)F)no1 (stereo not given) | 7.31 µM [rising, partial curve, poor fit] | – |
| Cc1cccc(-c2noc(CCCC(=O)NCC3CCCO3)n2)c1 (stereo not given) | 2.24 µM [rising, partial curve] | 0.708 µM [rising, full curve, poor fit] |
| CCCCc1nc2c(=O)[nH]c3ccccc3c2o1 | 0.0891 µM [rising, full curve, poor fit] | – |
| Cc1cccc(NC(=O)C(=O)NCCCN2CCOCC2)c1 | 3.16 µM [falling, partial curve, poor fit] | – |
| C/C(CC(=O)Nc1cccc(Cl)c1C)=N\NC(=O)Cc1csc(N)n1 | 5.62 µM [falling, partial curve] | – |
| Cc1nc(N)nc(SCc2ccc([N+](=O)[O-])cc2)c1N | 17.8 µM [rising, single point] | – |
| COC(=O)NCCOC(=O)N(O)c1ccc(Br)cc1 | 35.5 µM [rising, single point] | – |
| CC(=O)Nc1ccc(NC(=O)CC2SC(=O)N(CC(=O)c3ccccc3)C2=O)cc1 (stereo not given) | 10 µM [rising, partial curve, poor fit] | – |
| Nc1nc(NC(=O)c2ccccc2Cl)nn1-c1ccccc1 | 0.501 µM [falling, full curve] | – |
| CCCCC(=O)N/C(N)=N/c1nc2ccccc2o1 | 7.08 µM [falling, partial curve, poor fit] | – |
| COc1ccc2nc(C)cc(SCC(=O)NNC(=O)COc3ccc(C)cc3)c2c1 | 10 µM [rising, partial curve, poor fit] | – |
| C/C(=N\NC(=O)Cc1ccc(Cl)cc1)c1ccccn1 | 35.5 µM [rising, single point] | 22.4 µM [falling, single point] |
| CCOc1cc(C(=O)N/N=C/c2ccoc2)cc(OCC)c1OCC | 35.5 µM [rising, single point] | 35.5 µM [falling, single point] |
| CCOc1ccccc1C(=O)Nc1cccc2cccnc12 | 10 µM [falling, partial curve] | – |
| CCCc1cc(=O)oc2cc(OCC(=O)NCCc3c[nH]c4ccccc34)ccc12 | 17.8 µM [rising, single point] | – |

Shown tab-delimited: 2 of the compounds above.
SMILES	AC50 [1]	AC50 [2]
CCCCC(=O)N/C(N)=N/c1nc2ccccc2o1	7.08 µM [falling, partial curve, poor fit]	–
COc1ccc2nc(C)cc(SCC(=O)NNC(=O)COc3ccc(C)cc3)c2c1	10 µM [rising, partial curve, poor fit]	–

Following part.

| SMILES | AC50 [1] | AC50 [2] |
| --- | --- | --- |
| CCS(=O)(=O)n1nc(-c2ccccc2)nc1SC | 20.6 µM [falling, single point] | – |
| Cc1nc(CC(C)C)cc(C(=O)N2CCCC(CNS(=O)(=O)c3cccs3)C2)n1 (stereo not given) | 0.355 µM [rising, full curve, poor fit] | – |
| Cc1ccc(N2CC(C(=O)NCc3ccc4c(c3)OCO4)CC2=O)cc1C (stereo not given) | 6.51 µM [falling, single point] | – |
| COc1ccc(-c2cn3c(C)c(C(=O)Nc4ccncc4)sc3n2)cc1 | 29.1 µM [falling, single point] | – |
| CC(=O)Nc1cccc(C(=O)OCC(=O)N2CCC(c3ccccc3)=N2)c1 | 4.61 µM [falling, partial curve] | – |
| CCCCCn1c(=O)c(C(=O)OCC)c(O)c2ccccc21 | 18.4 µM [falling, single point] | – |
| COc1ccc(C(=O)/C=C/c2cccs2)c(OC(=O)c2cccc([N+](=O)[O-])c2)c1 | 5.17 µM [rising, partial curve, poor fit] | – |
| COc1ccc(N(CC(=O)O)S(C)(=O)=O)cc1OC | 0.164 µM [rising, full curve, poor fit] | – |
| C/[N+]([O-])=C\C1C(=O)CCCC1=O | 35.5 µM [rising, single point] | – |
| Cc1sc2ncnc(NCCc3ccc(S(N)(=O)=O)cc3)c2c1C | 32.6 µM [falling, single point] | – |
| CC1CCN(S(=O)(=O)c2ccc(C(=O)Nc3ccccn3)cc2)CC1 | 29.1 µM [falling, single point] | – |
| COc1ccc(-c2cn3cc(C)ccc3n2)cc1F | 0.447 µM [rising, partial curve, poor fit] | – |
| O=c1c(C=NCCCn2ccnc2)c(-c2ccccc2)[nH]n1-c1nc2ccccc2s1 | 32.6 µM [rising, single point] | 0.82 µM [rising, full curve] |
| COC(=O)c1ccccc1NC(=O)CNc1cc(OC)c(OC)cc1C | 11.6 µM [falling, partial curve, poor fit] | – |
| COc1ccc(C(=O)N[C@H](C(=O)NCCc2ccc3c(c2)OCCO3)C(C)C)cc1 | 1.84 µM [rising, partial curve, poor fit] | – |
| Nc1ccc(C(=O)OCC(=O)N2c3ccccc3Sc3ccccc32)cc1[N+](=O)[O-] | 32.6 µM [falling, single point] | – |
| O=C1NC2(O)C(=O)c3ccccc3C2(O)N1 (stereo not given) | 22.4 µM [rising, single point] | – |
| CCOC(=O)C(=O)/C(C#N)=C/Nc1ccc(F)cc1 | 6.51 µM [falling, full curve] | – |
| CCCCN(CCCC)S(=O)(=O)c1ccc(NC(=O)Cc2cccs2)cc1 | 1.64 µM [rising, partial curve, poor fit] | – |
| Cc1ccc(OCC(=O)O/N=C(\N)c2ccccn2)cc1C | 10 µM [falling, partial curve, poor fit] | – |
| C=CCNc1ncnc2c1cnn2-c1ccc(Cl)cc1 | 0.058 µM [rising, full curve, poor fit] | – |
